Reference: PubChem BioAssay AID1671190 (National Center for Advancing Translational Sciences (NCATS), 2021)
Screen size: about 580,000 compounds; about 6,100 (1.1%) were called active. This list was built around the results that the source calls inconclusive (neither active nor inactive); the mix of calls is not that of the screen. The call rests on the fitted dose curve; in most records, active means well fitted inhibition curve with a large enough effect; inconclusive means small, poorly fitted or top-dose-only effect, or another doubt; inactive means no such curve, though single readings can be large or run the other way. A potency beside an inconclusive call is a rough fit, not a confirmed value.

By UniProt entry, the sequences of proteins in these tests, tags left out. Where a name states a change or a piece, a line headed by the entry shows the natural chain unless it says otherwise.
UniProt P18054: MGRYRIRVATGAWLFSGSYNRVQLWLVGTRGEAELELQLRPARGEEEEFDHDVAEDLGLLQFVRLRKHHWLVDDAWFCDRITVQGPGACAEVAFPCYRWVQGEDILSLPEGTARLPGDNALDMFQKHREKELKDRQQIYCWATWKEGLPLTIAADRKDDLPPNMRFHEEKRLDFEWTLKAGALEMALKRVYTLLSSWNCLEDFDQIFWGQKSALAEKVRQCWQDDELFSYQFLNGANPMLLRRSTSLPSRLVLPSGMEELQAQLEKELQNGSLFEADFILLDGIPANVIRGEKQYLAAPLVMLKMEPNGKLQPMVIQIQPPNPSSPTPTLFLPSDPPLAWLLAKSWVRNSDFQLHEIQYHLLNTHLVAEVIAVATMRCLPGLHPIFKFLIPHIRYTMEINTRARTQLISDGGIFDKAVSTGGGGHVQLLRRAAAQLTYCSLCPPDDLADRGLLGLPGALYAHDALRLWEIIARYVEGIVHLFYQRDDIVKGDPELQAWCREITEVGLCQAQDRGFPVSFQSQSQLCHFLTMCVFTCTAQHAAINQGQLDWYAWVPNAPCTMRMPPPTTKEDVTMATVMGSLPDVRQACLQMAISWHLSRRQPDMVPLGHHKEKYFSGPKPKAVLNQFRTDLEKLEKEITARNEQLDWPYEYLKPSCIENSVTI

target: Polyunsaturated fatty acid lipoxygenase ALOX12 (Homo sapiens) (UniProt P18054); assay: Primary qHTS assay for inhibitors of human arachidonate 12S-lipoxygenase (ALOX12): Round 2; conditions: purified 12hLO, xylenol orange hydroperoxide absorbance; activity change, negative = inhibition: at 108 µM (top of the series) unless noted
Summary of the method: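 Purified human 12hLO at 150 nM in 25 mM Hepes, 0.01% Triton X-100, pH 7.0, preincubated 15 min at room temperature with compound. Reaction started with 40 uM arachidonic acid, 30 min at room temperature. Hydroperoxide measured by Fe-xylenol orange, 573/405 nm absorbance ratio.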
On the % scale 0 is the no-effect control and ±100 the full control effect; potency means the concentration at half of the fitted maximal effect.

| Structure (SMILES) | Potency | activity change, negative = inhibition |
| --- | --- | --- |
| Cc1cc(CNC(=O)c2cc(-c3ccccc3C)cc3c2OCCN3C)no1 | inconclusive: 39.8 µM [inhibitor, full curve] |  |
| O=c1[nH]cnc(O)c1C1C=CC=CC=C1 |  | inactive: -11.2% |
| Cc1ccc(-n2cc(CNCCN3CCOC3=O)c(-c3ccc(F)cc3)n2)cc1 |  | inactive: 0% |
| CCCCc1c(-c2ccccc2OC)ncn1Cc1ccc(C(C)(C)C)cc1 | inconclusive: 50.1 µM [inhibitor, partial curve, poor fit] |  |
| Cc1cccc(C(=O)NC(CC(=O)O)c2ccc(C(C)(C)C)cc2)c1 (stereo unspecified) |  | inactive: -32.6% |
| Cc1cc(=O)n(CC(=O)Nc2cccc(F)c2)c(-c2ccc(F)cc2)n1 |  | inactive: 8.18% |
| CC(=O)C1=C(C)N(Cc2ccc(Br)cc2)C(=S)NC1c1cccc(F)c1 (stereo unspecified) | active: 44.7 µM |  |
| COc1ccc(C)cc1NC(=O)CN1C(=O)c2cccc3cccc1c23 |  | inactive: 0% |
| O=C(Nc1ccccc1N1CCN(C(=O)c2ccc(Cl)cc2)CC1)c1cccc(F)c1 |  | inactive: 6.21% |
| COc1ccc(C(=O)COC(=O)COc2cc(C)cc(C)c2)cc1 | inconclusive: 112 µM [inhibitor, single point] |  |
| CCCNc1nc2ccccc2nc1C(=O)Nc1cc(C)ccc1C | inconclusive: 112 µM [inhibitor, partial curve, poor fit] |  |
| CC1CCCC(C)N1c1nnc(NC(=O)Cn2c(=O)oc3ccccc32)s1 (stereo unspecified) |  | inactive: -10.5% |
| COC(=O)C1=C(C)N(CCCC(=O)O)C(=O)NC1c1ccc([N+](=O)[O-])cc1 (stereo unspecified) | inconclusive: 35.5 µM [inhibitor, partial curve, poor fit] |  |
| COc1cc(-c2nn(C3CCC(N4CCN(C(C)=O)CC4)CC3)c3ncnc(N)c23)ccc1NC(=O)c1cc2ccccc2n1C (stereo unspecified) |  | inactive: 0.0667% [at 57.4 µM] |
| COc1ccc(/C=C(\C#N)C(=O)Nc2cccc3ncccc23)cc1OC | inconclusive: 79.4 µM [inhibitor, single point] |  |
| Cc1ccc(/C=C(\NC(=O)c2ccc(C)cc2)C(=O)NCCCn2ccnc2)cc1 |  | inactive: 3.5% |
| OCC[C@H]1C[C@@H](O)[C@H](O)[C@@]2(OCCc3ccccc32)O1 | inconclusive: 112 µM [inhibitor, single point] |  |
| Cc1ccc(NC(=O)Nc2cc3c(cc2Oc2ccccc2)n(C)c(=O)n3C)c(Cl)c1 | inconclusive: 141 µM [inhibitor, partial curve, poor fit] |  |
| CCC(CC)C(=O)Nc1nc2c(s1)CC(C)CC2 (stereo unspecified) | inconclusive: 39.8 µM [inhibitor, partial curve, poor fit] |  |
| O=C(COc1ccc(/C=N/NC(=O)c2ccccc2O)cc1)Nc1ccccc1 |  | inactive: 365% |
| CC1Cc2ccccc2N1Cc1cc(=O)c(OCC(=O)NCCc2ccccc2)co1 (stereo unspecified) | inconclusive: 112 µM [inhibitor, single point] |  |
| O=C(COC(=O)c1ccccn1)Nc1ccccc1Cl | inconclusive: 3.55 µM [inhibitor, partial curve, poor fit] |  |

| Structure (SMILES) | Potency | activity change, negative = inhibition |
| --- | --- | --- |
| CCc1cccc(C)c1NC(=S)NCC1CCN(c2ccc(OC)cc2)C1 (stereo unspecified) | inconclusive: 112 µM [inhibitor, single point] |  |
| O=C(O)C1=CCCNC1 | inconclusive: 44.7 µM [inhibitor, partial curve, poor fit] |  |
| N/C(=N\OC(=O)COc1cc(Cl)c(Cl)cc1Cl)c1ccncc1 |  | inactive: -10.9% |
| N#C/C(=C/c1cn(-c2ccccc2)nc1-c1cccc(OCc2ccc(F)cc2)c1)C(=O)NCCCn1ccnc1 |  | inactive: -5.7% |
| CCC(=O)N1CCc2cc(S(=O)(=O)CCC(=O)NCc3ccc4c(c3)OCO4)ccc21 | inconclusive: 0.562 µM [inhibitor, full curve, poor fit] |  |
| S=C(Nc1ccc(Cl)cc1)NC1CC1 |  | inactive: -13.5% |
| CN(Cc1ccc(Cl)c(Cl)c1)C(=O)c1cccc(S(=O)(=O)N2CCN(Cc3ccccc3)CC2)c1 |  | inactive: 31% |
| Nc1nc(N)c2cc(Sc3ccc4ccccc4c3)ccc2n1 | inconclusive: 44.7 µM [inhibitor, partial curve, poor fit] |  |
| Cc1ccccc1C(=O)NC(c1ccc(Cl)cc1)c1cccnc1 (stereo unspecified) | inconclusive: 50.1 µM [inhibitor, single point] |  |
| CCCCCOc1ccc(C2CC(=O)CC(=O)C2C(=O)OCC)cc1 (stereo unspecified) | inconclusive: 15.8 µM [inhibitor, full curve] |  |
| CCN(CC)S(=O)(=O)c1cccc(C(=O)Nc2cccc3ncccc23)c1 | inconclusive: 2.82 µM [inhibitor, full curve, poor fit] |  |
| COc1cc(CN2CCN(C(=O)c3cccc4ccccc34)CC2)cc(OC)c1O | inconclusive: 0.501 µM [inhibitor, full curve, poor fit] |  |
| CCOc1ccc(CCN2C(=S)N([C@@H](CC(C)C)CN3CCCC3CN3C(=S)NC[C@@H]3Cc3ccc(O)cc3)C[C@@H]2CC(C)C)cc1 (stereo partly specified) | inconclusive: 50.1 µM [inhibitor, partial curve, poor fit] |  |
| CN1C(=O)C(=O)/C(=C(/O)c2ccccc2)C1c1ccc([N+](=O)[O-])cc1 (stereo unspecified) | inconclusive: 6.31 µM [inhibitor, partial curve, poor fit] |  |
| O=C1N(c2ccccc2)c2ccccc2C12CCN([S+](=O)([O-])c1ccccc1)C2 (stereo unspecified) | inconclusive: 100 µM [inhibitor, single point] |  |
| Cc1ccc([S+](=O)([O-])N2CCc3nc(-c4ccc(Cl)cc4)nc(-c4ccccc4)c3C2)cc1 |  | inactive: -16.4% |
| COc1ccc(C2=CC(c3ccc(F)cc3)n3nnnc3N2)cc1 (stereo unspecified) | inconclusive: 2.82 µM [inhibitor, full curve, poor fit] |  |
| C/C(=C\c1cccc(Cl)c1Cl)C(=O)c1c(C)cc(C)[nH]c1=O | inconclusive: 31.6 µM [inhibitor, partial curve, poor fit] |  |
| CC(C)(C)NC(=O)CC1(C(=O)NCc2ccc(Cl)cc2)CCCC1 |  | inconclusive: -30.5% [inhibitor] |
| COCCCNC(=O)C[C@H]1C[C@H](C(=O)N2CCOCC2)[C@@]2(CCC3CCCC3)c3[nH]c4ccc(Cl)cc4c3CCN2C1=O | inconclusive: 112 µM [inhibitor, partial curve, poor fit] |  |
| Cc1cccn2c(=O)c3cc(C(N)=S)c(=N)n(CCCOC(C)C)c3nc12 | inconclusive: 50.1 µM [inhibitor, partial curve, poor fit] |  |
| CNC(=O)NC(=O)CNc1cccc(C)c1C(=O)OC | inconclusive: 126 µM [inhibitor, single point] |  |

| Structure (SMILES) | Potency | activity change, negative = inhibition |
| --- | --- | --- |
| CCOC(=O)C1=C[C@@H](C(C)(C)C)N(S(=O)(=O)c2ccc(C)cc2)[C@H]1c1ccc(C#N)cc1 |  | inactive: 46.1% |
| O=C(Nc1ccc2c(c1)OCO2)N1CCN(c2ncc(C(F)(F)F)cc2Cl)CC1 | inconclusive: 50.1 µM [inhibitor, partial curve, poor fit] |  |
| COCCN(CCOC)Cc1cc(=O)oc2cc(C)cc(C)c12 |  | inactive: 1.77% |
| COc1ccc(/C=C2\C(=O)ON=C2c2cccc([N+](=O)[O-])c2)cc1 | active: 31.6 µM |  |
| CC(NC(=O)C1CCN(c2cc(C(F)(F)F)ncn2)CC1)c1ccc(F)cc1 (stereo unspecified) | inconclusive: 39.8 µM [inhibitor, full curve] |  |
| COc1cccc(-c2cc(=O)n3[nH]c(C(F)(F)F)nc3n2)c1 | inconclusive: 31.6 µM [inhibitor, partial curve, poor fit] |  |
| COc1ccc(Cc2c(-c3ccc(F)cc3)nc3c4ccccc4ccn23)c(C)c1 |  | inactive: -5.46% |
| COc1ccc(C(CNC(=O)c2ccc(-c3cccc(C(F)(F)F)c3)o2)N2CCOCC2)cc1 (stereo unspecified) | inconclusive: 79.4 µM [inhibitor, single point] |  |
| CCN(CC(=O)Nc1ccccc1C(F)(F)F)C(=O)c1cccc(N2C(=O)CCC2=O)c1 | inconclusive: 3.55 µM [inhibitor, full curve, poor fit] |  |
| O=C(O)CCC(=O)NCCCN1CCOCC1 | inconclusive: 17.8 µM [inhibitor, full curve, poor fit] |  |
| CC(C)(C)OC(=O)N[C@H](C(=O)OC(C)(C)C)c1ccc2ccccc2c1 | inconclusive: 56.2 µM [inhibitor, partial curve, poor fit] |  |
| Cc1cc(C)c(N)c([N+](=O)[O-])c1 |  | inactive: -29.5% |
| COc1ccccc1NC(=S)NC(=O)C(C)(C)C | inconclusive: 50.1 µM [inhibitor, partial curve, poor fit] |  |
| CCc1cccc(NC(=O)C2CCCN2S(=O)(=O)c2ccccc2C(F)(F)F)c1 (stereo unspecified) | inconclusive: 56.2 µM [inhibitor, single point] |  |
| COc1ccc(-n2nc3ccc(NC(=O)COc4ccc(C)c(C)c4)cc3n2)cc1 | inconclusive: 56.2 µM [inhibitor, partial curve, poor fit] |  |
| COC(=O)c1ccc(O)c(Sc2cc(C(=O)OC)ccc2O)c1 | inconclusive: 50.1 µM [inhibitor, partial curve, poor fit] |  |
| O=S(=O)(c1ccc(NC(=S)NCc2ccco2)cc1)N1CCCCC1 | inconclusive: 100 µM [inhibitor, partial curve, poor fit] |  |
| Cc1ccc(CC(=O)NC(C)c2ccccn2)cc1C (stereo unspecified) |  | inactive: 32.8% |
| Cc1ccccc1Cc1c(C)nc2nc(SCC(=O)NCCCN3CCCC3)nn2c1C |  | inactive: -13.1% |
| Cc1c(Br)c2ccccc2n1CC(=O)N(C)C | inconclusive: 56.2 µM [inhibitor, single point] |  |
| Cc1ccc2nc(/N=C(\N)NC(=O)N3c4ccccc4Sc4ccccc43)nc(C)c2c1 | inconclusive: 89.1 µM [inhibitor, partial curve, poor fit] |  |
| O=[N+]([O-])c1ccc(N/N=C/c2ccc(/C=N/Nc3ccc([N+](=O)[O-])cc3)cc2)cc1 | inconclusive: 10 µM [inhibitor, partial curve, poor fit] |  |

Single records (already shown).
Cc1ccccc1Cc1c(C)nc2nc(SCC(=O)NCCCN3CCCC3)nn2c1C reads activity change, negative = inhibition: inactive: -13.1%
COc1ccc(C(CNC(=O)c2ccc(-c3cccc(C(F)(F)F)c3)o2)N2CCOCC2)cc1 (stereo unspecified) reads Potency: inconclusive: 79.4 µM [inhibitor, single point]
